The target in one experiment is T1, SG peptide 13 (human) (UniProt P10124).
T1 sequence (peptide): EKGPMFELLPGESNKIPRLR
Briefly: peptide or protein array; 20-mer walk of the SG core protein on cellulose, two-residue shift; 8.8 ul of 11.2 ug/mL proMMP-9 in 10 mL blocking buffer, 1-4 h, room temperature; antibody against MMP-9; both purified.

Amino acid sequences for entries named in this document (tags omitted). A change or cut given only in a name is not applied to a line headed by its entry. Chains listed by the source or under a name are the forms on record and can include a tag or linker. Residues count along the entry.
UniProt P14780: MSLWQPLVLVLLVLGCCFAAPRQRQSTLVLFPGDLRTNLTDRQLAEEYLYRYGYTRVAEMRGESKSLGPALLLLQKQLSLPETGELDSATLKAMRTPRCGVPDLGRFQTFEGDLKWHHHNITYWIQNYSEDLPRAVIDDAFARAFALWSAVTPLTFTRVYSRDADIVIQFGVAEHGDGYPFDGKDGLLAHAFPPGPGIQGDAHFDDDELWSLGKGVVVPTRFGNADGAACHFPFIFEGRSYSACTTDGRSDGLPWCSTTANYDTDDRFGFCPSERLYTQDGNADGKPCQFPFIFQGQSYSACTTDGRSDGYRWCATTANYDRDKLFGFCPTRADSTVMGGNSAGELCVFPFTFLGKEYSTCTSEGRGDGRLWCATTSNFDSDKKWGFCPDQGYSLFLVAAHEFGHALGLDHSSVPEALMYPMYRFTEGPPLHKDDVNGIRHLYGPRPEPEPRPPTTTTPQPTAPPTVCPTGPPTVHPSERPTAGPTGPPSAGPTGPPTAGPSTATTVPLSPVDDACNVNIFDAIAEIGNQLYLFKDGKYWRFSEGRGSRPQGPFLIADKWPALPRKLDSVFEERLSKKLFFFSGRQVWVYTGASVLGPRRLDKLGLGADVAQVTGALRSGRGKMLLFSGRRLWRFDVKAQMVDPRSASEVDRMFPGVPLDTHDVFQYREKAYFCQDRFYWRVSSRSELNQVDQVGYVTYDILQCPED
recombinant proMMP-9 lacking the FnII module, the OG and the HPX domains (P14780, form named): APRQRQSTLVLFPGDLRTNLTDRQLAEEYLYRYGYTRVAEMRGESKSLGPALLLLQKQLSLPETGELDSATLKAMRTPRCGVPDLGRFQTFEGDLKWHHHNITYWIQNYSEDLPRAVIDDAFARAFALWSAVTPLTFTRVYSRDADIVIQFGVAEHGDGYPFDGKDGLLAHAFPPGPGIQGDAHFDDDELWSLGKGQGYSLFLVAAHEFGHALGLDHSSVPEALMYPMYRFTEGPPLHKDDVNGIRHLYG
recombinant proMMP-9 lacking the FnII module (P14780, form named): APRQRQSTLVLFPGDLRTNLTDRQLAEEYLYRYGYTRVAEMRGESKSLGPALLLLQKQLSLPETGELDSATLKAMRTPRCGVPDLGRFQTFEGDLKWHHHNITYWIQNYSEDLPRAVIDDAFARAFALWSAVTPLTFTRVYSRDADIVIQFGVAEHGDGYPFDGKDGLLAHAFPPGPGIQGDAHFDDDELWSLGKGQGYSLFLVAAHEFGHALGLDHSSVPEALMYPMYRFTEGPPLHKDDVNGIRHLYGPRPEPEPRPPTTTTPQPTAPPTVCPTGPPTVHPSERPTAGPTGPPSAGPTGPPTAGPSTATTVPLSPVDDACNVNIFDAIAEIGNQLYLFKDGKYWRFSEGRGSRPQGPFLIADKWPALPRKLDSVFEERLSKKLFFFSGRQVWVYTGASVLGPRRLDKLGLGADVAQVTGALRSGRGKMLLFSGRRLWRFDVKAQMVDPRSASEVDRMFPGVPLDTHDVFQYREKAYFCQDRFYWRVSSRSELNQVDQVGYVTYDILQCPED
recombinant proMMP-9 lacking the FnII module and the HPX domain (P14780, form named): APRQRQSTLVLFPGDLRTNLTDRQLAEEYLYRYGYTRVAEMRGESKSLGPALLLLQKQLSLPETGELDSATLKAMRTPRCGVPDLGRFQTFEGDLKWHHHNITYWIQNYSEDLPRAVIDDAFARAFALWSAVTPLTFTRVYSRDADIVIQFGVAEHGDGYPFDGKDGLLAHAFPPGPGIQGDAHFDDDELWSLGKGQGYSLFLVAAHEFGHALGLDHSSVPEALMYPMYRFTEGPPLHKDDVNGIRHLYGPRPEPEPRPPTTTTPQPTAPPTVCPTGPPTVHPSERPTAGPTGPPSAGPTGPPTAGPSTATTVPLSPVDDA
UniProt P01033, residues 24-207: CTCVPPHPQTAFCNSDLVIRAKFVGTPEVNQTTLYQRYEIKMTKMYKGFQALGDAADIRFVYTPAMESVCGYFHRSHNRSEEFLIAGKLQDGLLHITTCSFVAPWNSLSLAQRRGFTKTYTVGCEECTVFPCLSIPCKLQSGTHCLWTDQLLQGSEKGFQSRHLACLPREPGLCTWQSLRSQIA

In the next experiment the target is T2, SG peptide 16 (human) (UniProt P10124).
T2 sequence (peptide): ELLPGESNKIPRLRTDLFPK
The experiment is described as above.

A further experiment concerns the target T3, SG peptide 21 (human) (UniProt P10124).
T3 sequence (peptide): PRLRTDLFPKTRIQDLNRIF
Described as above.

The target in experiment [1] is T4, purified chondroitin sulfate proteoglycan from unstimulated THP-1 cells, mainly serglycin (human (endogenous in THP-1)) (UniProt P10124).
T4 sequence (chain, chondroitin sulfate chains on serines of the eight Ser-Gly repeats (67-84)): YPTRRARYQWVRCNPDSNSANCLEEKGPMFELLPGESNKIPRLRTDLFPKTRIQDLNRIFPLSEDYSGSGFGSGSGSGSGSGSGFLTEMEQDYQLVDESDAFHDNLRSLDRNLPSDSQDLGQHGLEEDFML
Briefly: in vitro reconstitution, complex isolated on Q-Sepharose, Western blotting; as the zymography set-up; samples reduced with 0.1 M DTT before electrophoresis, or unreduced with the gel incubated in 0.1 M DTT before blotting; antibody against MMP-9; both purified.

Experiment [2] deals with T4, purified chondroitin sulfate proteoglycan from unstimulated THP-1 cells, mainly serglycin (human (endogenous in THP-1)). Briefly: in vitro reconstitution, complex isolated on Q-Sepharose, gelatin zymography; 0.05 uM proMMP-9 variant with 230 ug/mL CSPG/SG, 15 min to 24 h, 37 °C, 0.1 M HEPES pH 7.5, with or without 10 mM EDTA; Q-Sepharose washed with 6 M urea and 0.35 M NaCl, eluted with 1.5 M NaCl; SDS-stable and SDS-soluble complexes; both purified.

For experiment [3], the target named is recombinant proMMP-9 lacking the OG and HPX domains (human) (UniProt P14780). Briefly: SDS-PAGE, Western blotting and gelatin zymography under non-reducing and reducing conditions; purified preparations; SDS-stable, reduction-sensitive homomultimer beside the monomer; both purified.
Experiment [4] concerns the target recombinant proMMP-9 lacking the FnII module, the OG and the HPX domains (human) (UniProt P14780). Briefly: SDS-PAGE, Western blotting and real-time gelatin zymography under non-reducing and reducing conditions; partly purified preparation or crude insect-cell media of the ΔFnII variants. (In general: A western blot detects proteins with antibodies after separation by electrophoresis.)

The target in experiment [5] is T4, purified chondroitin sulfate proteoglycan from unstimulated THP-1 cells, mainly serglycin (human (endogenous in THP-1)). Briefly: condition: approximately 3 to 5 times as much of these enzymes as used of the rpMMP-9ΔFnII deletion variant; in vitro reconstitution, complex isolated on Q-Sepharose, Western blotting; partly purified or crude insect-cell medium with the ΔFnII variants, mixed with 230 ug/mL purified CSPG/SG, 37 °C, 0.1 M HEPES pH 7.5; samples reduced or gel treated with DTT; antibody against MMP-9; only the target ….

The target in experiment [6] is recombinant proMMP-9 lacking the FnII module (human) (UniProt P14780). Briefly: SDS-PAGE, Western blotting and real-time gelatin zymography under non-reducing and reducing conditions; partly purified preparation or crude insect-cell media of the ΔFnII variants.
For experiment [7], the target named is T4, purified chondroitin sulfate proteoglycan from unstimulated THP-1 cells, mainly serglycin (human (endogenous in THP-1)). Briefly: in vitro reconstitution, complex isolated on Q-Sepharose, Western blotting; partly purified or crude insect-cell medium with the ΔFnII variants, mixed with 230 ug/mL purified CSPG/SG, 37 °C, 0.1 M HEPES pH 7.5; samples reduced or gel treated with DTT; antibody against MMP-9; only the target purified.

The target of experiment [8] is recombinant proMMP-9 lacking the FnII module and the HPX domain (human) (UniProt P14780). Briefly: SDS-PAGE, Western blotting and real-time gelatin zymography under non-reducing and reducing conditions; partly purified preparation or crude insect-cell media of the ΔFnII variants.
For experiment [9], the target named is proMMP-9 purified from THP-1 cells (human (endogenous in THP-1)) (UniProt P14780). Briefly: co-purification on gelatin-Sepharose, SDS-PAGE; THP-1 conditioned medium, Q-Sepharose pass-through applied to gelatin-Sepharose; 28-30 kDa band beside the 92 kDa proMMP-9.

These are yes or no findings as the source states them, for the method shown. Some binding calls cover weakened binding; strength is not graded here.

On to “recombinant proMMP-9 lacking the HPX domain (from UniProt P14780 20-515) (domain or fragment)”, for which the binding entry is recorded as “no binding (tested: 8.8 ul of 11.2 ug/mL proMMP-9 in 10 mL)” with SG peptide 13 (human); “no binding (tested: 8.8 ul of 11.2 ug/mL proMMP-9 in 10 mL)” with SG peptide 16 (human); “no binding (tested: 8.8 ul of 11.2 ug/mL proMMP-9 in 10 mL)” with SG peptide 21 (human); “binds” in [1]; “binds” in experiment [2].

“proMMP-9 purified from THP-1 cells (from UniProt P14780 20-707) (enzyme)”: the binding result is on record as “no binding (tested: 8.8 ul of 11.2 ug/mL proMMP-9 in 10 mL)” with SG peptide 13 (human), “no binding (tested: 8.8 ul of 11.2 ug/mL proMMP-9 in 10 mL)” with SG peptide 16 (human), “binds” in experiment [1] and “binds” in [2].

As for “recombinant proMMP-9 lacking the OG and HPX domains (from UniProt P14780 20-444) (domain or fragment)”, the binding result in experiment [3] is reported as “no binding”; in [2], “binds”.

Take “recombinant proMMP-9 lacking the FnII module, the OG and the HPX domains (from UniProt P14780 20-444) (domain or fragment)”: the binding result in experiment [4] and in [5] was “no binding” in each case.

Consider “recombinant proMMP-9 lacking the FnII module (from UniProt P14780 20-707) (enzyme)”, for which the binding result in [6] and in [7] was “binds” throughout.

Consider “recombinant proMMP-9 lacking the FnII module and the HPX domain (from UniProt P14780 20-515) (domain or fragment)”, for which the binding entry is on record as “binds” in experiment [8] and “no binding” in [5].

On to TIMP-1 (from UniProt P01033 24-207), for which the binding entry in experiment [9] is “binds”.

As for “recombinant full-length proMMP-9 (from UniProt P14780 20-707) (enzyme)”, the figures for the binding entry (with SG peptide 13 (human); in the experiment with SG peptide 16 (human); in experiment [2]) were “no binding (tested: 8.8 ul of 11.2 ug/mL proMMP-9 in 10 mL)”, “no binding (tested: 8.8 ul of 11.2 ug/mL proMMP-9 in 10 mL)” and “binds”, respectively.

The record behind these values is paper PMC7352350.
